About 210 (0.4%) of roughly 52,000 sequences were called active.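 Rule for the calls: active = gene whose silencing raises cell survival under the drug, median off-target-corrected z-score across its silencing RNAs 2 or more; inactive = the rest.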 The list shows a part of the results.
Assay: Resistance to Poly (ADP-Ribose) Polymerase inhibitor: Gene Identification via Genome-wide siRNA Screen
Settings: mouse BRCA2 R2336H ES cells, olaparib, CellTiter-Glo viability; hits give high values
Summary of the method: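 Genome-wide siRNA screen (3 siRNAs/gene, 20 nM) in mouse ES cells carrying hypomorphic BRCA2 R2336H; olaparib 500 nM added 48 h post-transfection, CellTiter-Glo viability 72 h later. Normalized to plate-median negative control; MAD z-scores, gene median, seed-adjusted.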
In the case of GGUUUCACCAGCCAAUGUCTT against Ltk, the z-score was inactive: 0.769. With GGGUCAAAAGAUAUUUGUCTT against Pitpn the z-score was inactive: 1.39. In the case of GGACGUAUCCAUCACUGUUTT against Scn3b, the z-score was inactive: 0.269. For GGUUCAAAUGGUCAAAUUCTT against Pcdha10, the z-score was inactive: 0.257. In the case of CGUAAUUAAUCAACAGCCATT against Siat8b, the z-score was inactive: 1.45. For GUUACACAGGAGUGUGUAATT against Ear11, the z-score was inactive: -0.405. For CCAAGAUCGAUCAUUUUGGTT against Gm527, the z-score was inactive: 0.539. For GCCUAUAAGGAAUAACAAGTT against Cerkl, the z-score was inactive: -0.969. With GGAGCUCAACAAAGACCUGTT against BC023823 the z-score was inactive: 0.241. With GGCUUCUUCUAUAACCCAATT against Hist1h1a the z-score was inactive: 0.507. For GGUGGAUCACAGGUUCAUGTT against Rhced, the z-score was inactive: 0.401. With CGCCACACACCAUCACAUUTT against Scap the z-score was inactive: -1.97. With GCUGGACAUAUGGUCCAAATT against Crsp8 the z-score was inactive: -0.291. In the case of GGAAGAAUCGGAUCAAGAUTT against Dpep2, the z-score was inactive: 2.16. With “GGAAUGCUGAAGAAUUUUGTT against D630042P16Rik” the z-score was inactive: 1.14. With GGAGAUAGGAUUGCUUGCATT against Fthfsdc1 the z-score was inactive: -1.56. In the case of GCAGAAAAAUCCUCUUACATT against Sp6, the z-score was inactive: 0.569. With GUCUUGACAUUAGUACUCATT against Olfr1408 the z-score was inactive: 0.217. In the case of GGUCAAAUUCUUUGACCUATT against Tesk2, the z-score was inactive: 1.44. In the case of “CCUAGACAAUACUUGCCUGTT against E130016I23Rik”, the z-score was inactive: -1.89. For GGUCAAAGUUUGAUGUUAGTT against Tll2, the z-score was inactive: -1.04. With GGCAAGAGCAUCCUUACAGTT against Fah the z-score was inactive: 0.717. In the case of CGAGAUUGUGCUGAUAGAGTT against Nptx2, the z-score was inactive: 0.175. With CCAGCAAUAAUGAAAAGACTT against Samd8 the z-score was inactive: -0.473. For GCACCAUGAAUGGAGAUGATT against Mrpplf4, the z-score was inactive: 0.197. For “ACUCAGUAGUUAAUGUGGGTT against E130113K08Rik”, the z-score was inactive: 0.513. For GGUACUGGAGAAAGUCAAGTT against Pik4cb, the z-score was inactive: 0.097. With CGGGAACAUAUCAGACUAATT against Mcm3ap the z-score was inactive: -0.752. In the case of GCCUUCGGAAAACGAGAAATT against Atpi, the z-score was inactive: -0.698. In the case of GGACCUUAAUUGCAUCAUUTT against Mapk3, the z-score was inactive: 0.829. With GGAUUCUGUAGGUCUUCCUTT against Defb19 the z-score was inactive: 0.354. For “CGUAACUUUGUUGAACUACTT against A630050E13Rik”, the z-score was inactive: 2.16. In the case of GGUACAUUUCAACCACAUUTT against Lnx1, the z-score was inactive: 0.338. For CCUCAUGCUAGCCUCAUGATT against Actg, the z-score was inactive: -2.74. With GGAACAGAAUACAAAAAAGTT against Syap1 the z-score was inactive: 0.398. In the case of GCUGAAAUAGUUGCUAAAUTT against Usp6nl, the z-score was inactive: 2.64. With GCUACGACUCGGAUGAUACTT against Doc2a the z-score was inactive: -1.27. With GGGAAGGAUGUGCUUAUGATT against Rab38 the z-score was inactive: 0.123. With “GGCCUAAGGACAAUUAUUUTT against 9130022A01Rik” the z-score was inactive: 0.222. In the case of GGAGCAUGCUGGUCUUAGUTT against Bmp10, the z-score was inactive: -0.453. In the case of GGGUAUGCAAAAAUGGUUGTT against Csnk2a2, the z-score was inactive: 1.55. For GGGUCACACUUCAUGGCUUTT against Pofut1, the z-score was inactive: -2.1. In the case of “GGGAUUUGCUUCAACCUGGTT against 2810021O14Rik”, the z-score was inactive: -0.218. For CCCGGAACUUAACUCUGUATT against LOC381438, the z-score was inactive: -0.264. In the case of “GGACAUGGCUUUAUAACCUTT against 4732421G10Rik”, the z-score was inactive: -0.411. In the case of GGAUGUAUAGGUUCAGCUGTT against Dph2l2, the z-score was inactive: 1.29. With GGAGGAACACAAGAUUUUCTT against Ppp2r5c the z-score was inactive: 0.463. With GGUAAAGAUGAAAAUGUGUTT against Fut9 the z-score was inactive: -0.027. For GGUUCAACACGAUGUUCGATT against Nr1i2, the z-score was inactive: 0.927. For CCUUCAACACCAGUUUGGGTT against Olfr1393, the z-score was inactive: -0.27. For GAGAAAGAUAAUUACCUGGTT against Tnfrsf22, the z-score was inactive: 1.28. In the case of GGAUGAUUCUGGGUUACAGTT against Mum1, the z-score was inactive: -1.12. For “CGAAGAGUACUUUUUUAGUTT against 4933417K05Rik”, the z-score was inactive: 0.567. With GCAUGUCCACGUUAGAAUCTT against Fbxw7 the z-score was inactive: 1.29. For GCUAGAGUGACUAUUUUACTT against Acta2, the z-score was inactive: 1.44. For GCAAACCUUUGUUCAUUCCTT against Prnp, the z-score was inactive: 0.554. For GGAAACCUAUUUCAUAUAGTT against Pik3cg, the z-score was inactive: 0.662. In the case of GCCAUAUCGCUAAAAUUCUTT against Hoxa10, the z-score was inactive: 1.1. For GGGAAACAUUUGAAAGCCUTT against Mpp4, the z-score was inactive: 0.512. In the case of GGAAUACAUCGAGUAUCUCTT against Xab2, the z-score was inactive: -0.79. For “GGCUAUGGAGAGAGUAUGCTT against 4930579E17Rik”, the z-score was inactive: -1.35. In the case of ACCUCAAGACAGUGCAAAUTT against Hist1h2bc, the z-score was inactive: 0.0208. In the case of GCUGGUGCAUUACUGAGGUTT against Olfr69, the z-score was inactive: -0.221. With “GGCCACUCGUUUUCUAAUUTT against 2010109K11Rik” the z-score was inactive: -1.53. With GGAAGCUUUGGGAAACAGUTT against Bmp2 the z-score was inactive: -0.527. For GCUCAUUGAGUACAAGACCTT against Ndufs2, the z-score was inactive: -0.0275. For UCACAGUGCUUAUCAUUGUTT against Olfr506, the z-score was inactive: 0.521. With GCACUACGAUGACUUCCUGTT against Poll the z-score was inactive: -0.251. With GGGAAAUGGAAAGCAUUCUTT against Olfr374 the z-score was inactive: 0.248. For CCGACUGGGCUCUUUUUACTT against Dbnl, the z-score was inactive: 0.562. In the case of “GUCAGAGCUUGAGGAGUUCTT against 0610033H09Rik”, the z-score was inactive: 1.96. For GCUAUACAUCAUGGUAUCCTT against Dlx1, the z-score was inactive: -2.15. For GGUAAAGACAAGAUUAAAGTT against Cyp39a1, the z-score was inactive: 0.269. For GCAUCAGAUGCGUUUGCUUTT against Blm, the z-score was inactive: 2.49. For “GGGAAUCUCUACAGACCCUTT against B130017P16Rik”, the z-score was inactive: 0.243. For GGGAUGGAGGAGGAGCUUATT against Bad, the z-score was inactive: 0.544. For GGAAAUGAAGGUUGCAAUGTT against Olfr1317, the z-score was inactive: 0.0452. In the case of GCUUCCUUCUUCUUGUCCATT against V1ra6, the z-score was inactive: -0.274. In the case of GGUUUUGGUCUCACUUUAATT against Pdzx, the z-score was inactive: -0.522. For “GGAUCUUGAAGCCAAAUACTT against 0610011N22Rik”, the z-score was inactive: -1.97. For GGCCUUUGUCCUUGUCUUCTT against Syvn1, the z-score was inactive: -0.572. In the case of GCUUAAAACCAUGUCUGAUTT against Ddef1, the z-score was inactive: -0.527. In the case of GAAACUGCUGCCUCACAUCTT against Arbp, the z-score was inactive: -1.38. With GGUCUCCAUCACAUUCAAGTT against BC024139 the z-score was inactive: 2.21. In the case of GGUGAACCCUUUGAGGAAGTT against Gstt3, the z-score was inactive: 0.0605. In the case of GGCACUGAGGUUGUUCAGGTT against Eif3s3, the z-score was inactive: -0.713. For GGGCUGUUAUUUCAAGAAATT against Galnt13, the z-score was inactive: 1.63. With “CCUACAUGUAAUCCAUUUUTT against 1700093E07Rik” the z-score was inactive: 0.379. With GGGAAUGUGACCAUCAAGCTT against Arl10b the z-score was inactive: -0.184. For “GCCACACGACAUGUGAUUCTT against 4932409I22Rik”, the z-score was inactive: 0.291. With GGAUUUCUAGACUUUAGGATT against Xcr1 the z-score was inactive: 0.711. In the case of GGUAUCCCUAACUGGCAGUTT against Tro, the z-score was inactive: 0.104. For CGACGUGAUCACCAAAGGCTT against Map3k14, the z-score was inactive: -1.65. For GGAAACUUUGUUAAAACAGTT against Tank, the z-score was inactive: -0.299. In the case of GGUGGUUCCCAUUUCCUUATT against BC004004, the z-score was inactive: 1.1. In the case of GGCACGGUGGUGAUAACUUTT against Gpr77, the z-score was inactive: -1.02. With “GCCGUACUUUGUCUUUGACTT against 1700020B09Rik” the z-score was inactive: 0.994. With GGUCAUCUCUCUUUAGCCUTT against Gsg2 the z-score was inactive: -1.12. In the case of GGAGCAGGAUUUUGGCAGUTT against Casp2, the z-score was inactive: -0.185. With GGAAUGUUUGGUGCUAUGATT against BC011209 the z-score was inactive: -1.9. With GGAAAUAGUUGGUUUUGAATT against Slfn1 the z-score was inactive: 0.273. For CCAGAUACAUCUACAACCGTT against H2-Ab1, the z-score was inactive: 1. With GGUCAAUAUGCAGAAAAUGTT against Eif4g2 the z-score was inactive: -1.77. In the case of CCACUAUGUUCUGUGGCAATT against Olfr736, the z-score was inactive: -0.18. In the case of “GGCAUUUUCUUAUUCAUUGTT against 4933414I15Rik”, the z-score was inactive: 0.962.

Source: PubChem BioAssay AID1347423 (Functional Genomics Laboratory (NCATS/FGL), 2020)
